Measured values taken from PMC12635182.
Results are given in words; binding and its absence hold for the method and conditions named. In cells and extracts the contact can be indirect. Tags and fused reporters may be left off the sequences shown.

Molecular target: VN alone (N-terminal fragment of Venus)
Experiment: split reporter; Venus BiFC in HEK 293 cells co-transfected with equimolar amounts of the VN and VC plasmids; fluorescence seen 24 or 48 h after transfection

binding: no binding
B1: Sph1-VC (synphilin-1 fused in front of the C-terminal fragment of Venus) (protein, UniProt Q9Y6H5 1-919)
chain: MEAPEYLDLDEIDFSDDISYSVTSLKTIPELCRRCDTQNEDRSVSSSSWNCGISTLITNTQKPTGIADVYSKFRPVKRVSPLKHQPETLENNESDDQKNQKVVEYQKGGESDLGPQPQELGPGDGVGGPPGKSSEPSTSLGELEHYDLDMDEILDVPYIKSSQQLASFTKVTSEKRILGLCTTINGLSGKACSTGSSESSSSNMAPFCVLSPVKSPHLRKASAVIHDQHKLSTEETEISPPLVKCGSAYEPENQSKDFLNKTFSDPHGRKVEKTTPDCQLRAFHLQSSAAESKPEEQVSGLNRTSSQGPEERSEYLKKVKSILNIVKEGQISLLPHLAADNLDKIHDENGNNLLHIAASQGHAECLQHLTSLMGEDCLNERNTEKLTPAGLAIKNGQLECVRWMVSETEAIAELSCSKDFPSLIHYAGCYGQEKILLWLLQFMQEQGISLDEVDQDGNSAVHVASQHGYLGCIQTLVEYGANVTMQNHAGEKPSQSAERQGHTLCSRYLVVVETCMSLASQVVKLTKQLKEQTVERVTLQNQLQQFLEAQKSEGKSLPSSPSSPSSPASRKSQWKSPDADDDSVAKSKPGVQEGIQVLGSLSASSRARPKAKDEDSDKILRQLLGKEISENVCTQEKLSLEFQDAQASSRNSKKIPLEKRELKLARLRQLMQRSLSESDTDSNNSEDPKTTPVRKADRPRPQPIVESVESMDSAESLHLMIKKHTLASGGRRFPFSIKASKSLDGHSPSPTSESSEPDLESQYPGSGSIPPNQPSGDPQQPSPDSTAAQKVATSPKSALKSPSSKRRTSQNLKLRVTFEEPVVQMEQPSLELNGEKDKDKGRTLQRTSTSNESGDQLKRPFGAFRSIMETLSGNQNNNNNYQAANQLKTSTLPLTSLGRKTDAKGNPASSASKGKNKAA
